The target in assay [1] is COMMD1-GST (UniProt Q8N668). Nature of the assay: pull-down; HEK293T cells co-transfected with both partners; GST-tagged protein held on Glutathione Sepharose 4B; cells mainly lysed in NP-40 buffer (0.4 M NaCl, 0.1% NP-40, 10 mM Tris-HCl pH 8.0, 1 mM EDTA); immunoblot.
The target in assay [2] is Full-length Flag-tagged LDLR receptor (UniProt P01130). Nature of the assay: co-IP; HEK293T transfected with Flag-LDLR vector; immunoprecipitation with rabbit anti-Flag antibody; endogenous COMMD1 detected by immunoblot.

No constants are given. Whether binding was seen depends on the method and setting. In cells and extracts the contact can be indirect. Some binding calls cover weakened binding; strength is not graded here.

Turning to “Full-length Flag-tagged LDLR receptor (from UniProt P01130 22-860)”, the binding entry in assay [1] is reported as “binds”.
“endogenous COMMD1 (from UniProt Q8N668 1-190)”: the binding result in assay [2] is given as “binds”.

Source of the values: article PMC4792963.
